Measured values as given in paper PMC8164026, “Intrapulmonary administration of purified NEIL2 abrogates NF-κB–mediated inflammation”.
Results are given in words; binding and its absence hold for the method and conditions named. Binding seen in cells or lysates may run through a third protein. A result given as binding can be weak or reduced; the word gives no strength. Tags and fused reporters may be left off the sequences shown.

Biological target: T1, Recombinant FLAG-tagged NEIL2 (NEIL2-FLAG) from h358 cells (UniProt Q969S2)
T1 sequence: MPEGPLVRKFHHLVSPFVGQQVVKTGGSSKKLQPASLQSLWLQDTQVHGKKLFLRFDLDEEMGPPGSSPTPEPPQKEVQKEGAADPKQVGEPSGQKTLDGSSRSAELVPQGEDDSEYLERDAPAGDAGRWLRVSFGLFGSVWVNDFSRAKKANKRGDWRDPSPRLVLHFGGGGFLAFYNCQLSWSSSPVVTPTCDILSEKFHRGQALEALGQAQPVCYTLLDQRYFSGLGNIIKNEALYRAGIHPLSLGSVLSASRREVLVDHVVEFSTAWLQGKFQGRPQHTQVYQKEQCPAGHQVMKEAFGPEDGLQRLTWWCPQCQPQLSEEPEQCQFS
Assay: co-IP; anti-FLAG beads preincubated 1 h at 4 °C with whole cell lysates of h358 cells expressing control or NEIL2-FLAG vector, washed, then incubated 1 h at 4 °C with 1 μg rHis-RelA or GST-tagged RelA domains in 300 μl IP buffer (25 mM Tris-HCl pH 7.5, 150 mM NaCl, 1% Triton X-100, 5% glycerol, 1 mM DTT); immunoblot with anti-RelA, FLAG or GST; both purified

GST-tagged Rel homology region of RelA (GST-RHR) (domain or fragment)
binding: binds
